Test results reported in paper PMC11436757, “BRCA2 stabilises RAD51 and DMC1 nucleoprotein filaments through a conserved interaction mode” (Nature Communications, 2024).
For some assays here: Negatives hold for the conditions tested. For some assays here: Protein sequences can lack the tags named with them. For some assays here: Construct, isoform or probe ends are uncertain for at least one entry. For some assays here: A weaker result is weaker than the reference pair of the same experiment. For some assays here: At least one verdict rests on a figure or table, not on a statement of the authors.

By UniProt entry, the sequences of proteins in these tests, tags left out.
UniProt Q06609, whole entry L180E: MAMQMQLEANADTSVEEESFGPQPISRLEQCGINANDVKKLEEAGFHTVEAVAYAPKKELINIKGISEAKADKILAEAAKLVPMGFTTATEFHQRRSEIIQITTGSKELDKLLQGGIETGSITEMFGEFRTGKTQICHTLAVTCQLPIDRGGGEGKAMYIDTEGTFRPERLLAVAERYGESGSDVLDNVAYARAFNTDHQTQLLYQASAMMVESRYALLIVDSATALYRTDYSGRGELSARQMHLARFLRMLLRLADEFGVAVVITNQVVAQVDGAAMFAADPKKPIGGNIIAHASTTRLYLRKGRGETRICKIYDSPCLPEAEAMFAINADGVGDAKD
UniProt Q06609, whole entry: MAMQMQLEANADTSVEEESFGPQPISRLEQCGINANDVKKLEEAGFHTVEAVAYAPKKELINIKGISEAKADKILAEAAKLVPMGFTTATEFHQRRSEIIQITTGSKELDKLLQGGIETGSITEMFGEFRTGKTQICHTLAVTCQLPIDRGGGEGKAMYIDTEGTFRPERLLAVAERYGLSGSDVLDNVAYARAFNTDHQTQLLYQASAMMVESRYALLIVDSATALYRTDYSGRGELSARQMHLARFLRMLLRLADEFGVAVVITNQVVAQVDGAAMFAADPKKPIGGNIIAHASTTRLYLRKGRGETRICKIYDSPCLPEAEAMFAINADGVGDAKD

Assays:
RAD51 L180E [1] = biological target: RAD51 L180E (UniProt Q06609); assay: EMSA, BRC4 protection; conditions: DMC1: 25 mM TEA (triethanolamine) pH 7.5, 200 mM KCl, 1 mM ATP, 2 mM MgCl2, 0.1 mg/ml BSA, 2 mM DTT, or 50 mM TAE pH 7.5, 2 mM ATP, 2 mM MgCl2, 2 mM DTT, recombinant protein, residues 1-339, single-stranded DNA
RAD51 [2] = biological target: RAD51 (UniProt Q06609); assay: EMSA, BRC4 protection; conditions: DMC1: 25 mM TEA (triethanolamine) pH 7.5, 200 mM KCl, 1 mM ATP, 2 mM MgCl2, 0.1 mg/ml BSA, 2 mM DTT, or 50 mM TAE pH 7.5, 2 mM ATP, 2 mM MgCl2, 2 mM DTT, recombinant protein, residues 1-339, single-stranded DNA
RAD51 [3] = biological target: RAD51 (UniProt Q06609); assay: EMSA, disruption by BRC4; conditions: DMC1: 25 mM TEA (triethanolamine) pH 7.5, 200 mM KCl, 1 mM ATP, 2 mM MgCl2, 0.1 mg/ml BSA, 2 mM DTT, or 50 mM TAE pH 7.5, 2 mM ATP, 2 mM MgCl2, 2 mM DTT, recombinant protein, residues 1-339, single-stranded DNA
RAD51 L180E [4] = biological target: RAD51 L180E (UniProt Q06609); assay: EMSA; conditions: 2 mM ATP, 0.5 mM Mg2+, no BRC4, DMC1: 25 mM TEA (triethanolamine) pH 7.5, 200 mM KCl, 1 mM ATP, 2 mM MgCl2, 0.1 mg/ml BSA, 2 mM DTT, or 50 mM TAE pH 7.5, 2 mM ATP, 2 mM MgCl2, 2 mM DTT, recombinant protein, residues 1-339, single-stranded DNA
RAD51 [5] = biological target: RAD51 (UniProt Q06609); assay: EMSA; conditions: 2 mM ATP, 0.5 mM Mg2+, no BRC4, DMC1: 25 mM TEA (triethanolamine) pH 7.5, 200 mM KCl, 1 mM ATP, 2 mM MgCl2, 0.1 mg/ml BSA, 2 mM DTT, or 50 mM TAE pH 7.5, 2 mM ATP, 2 mM MgCl2, 2 mM DTT, recombinant protein, residues 1-339, single-stranded DNA
DMC1 + BRCA2 Ex14-Tr [6] = assay: EMSA, BRC4 protection; conditions: TEA + KCl, Ex14-Tr + BRC4, protection mostly lost; DMC1: 25 mM TEA (triethanolamine) pH 7.5, 200 mM KCl, 1 mM ATP, 2 mM MgCl2, 0.1 mg/ml BSA, 2 mM DTT, or 50 mM TAE pH 7.5, 2 mM ATP, 2 mM MgCl2, 2 mM DTT; recombinant protein; protein details: His6 removed by TEV; label: 5'-FAM; single-stranded DNA
DMC1 (Homo sapiens) [7] = biological target: T1, DMC1 (Homo sapiens) (UniProt Q14565); assay: EMSA, BRC4 protection; conditions: TEA + KCl, Ex14-AAA + BRC4, protection largely or completely abrogated; DMC1: 25 mM TEA (triethanolamine) pH 7.5, 200 mM KCl, 1 mM ATP, 2 mM MgCl2, 0.1 mg/ml BSA, 2 mM DTT, or 50 mM TAE pH 7.5, 2 mM ATP, 2 mM MgCl2, 2 mM DTT; recombinant protein; residues 1-340; protein details: His6 removed by TEV; label: 5'-FAM; single-stranded DNA
T1 sequence (looked up): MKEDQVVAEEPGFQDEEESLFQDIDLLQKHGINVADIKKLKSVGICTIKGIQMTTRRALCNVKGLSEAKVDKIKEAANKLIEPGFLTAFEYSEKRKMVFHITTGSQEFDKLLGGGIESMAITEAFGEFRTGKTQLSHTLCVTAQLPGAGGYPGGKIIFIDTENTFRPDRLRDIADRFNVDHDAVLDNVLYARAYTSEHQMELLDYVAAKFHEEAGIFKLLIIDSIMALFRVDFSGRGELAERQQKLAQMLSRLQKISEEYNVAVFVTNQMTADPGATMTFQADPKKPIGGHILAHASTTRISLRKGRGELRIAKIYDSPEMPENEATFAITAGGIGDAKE

RAD51 L180E [8] = biological target: RAD51 L180E (UniProt Q06609); assay: EMSA, disruption by BRC4; conditions: BRC4, similar disruption to wild type; DMC1: 25 mM TEA (triethanolamine) pH 7.5, 200 mM KCl, 1 mM ATP, 2 mM MgCl2, 0.1 mg/ml BSA, 2 mM DTT, or 50 mM TAE pH 7.5, 2 mM ATP, 2 mM MgCl2, 2 mM DTT; recombinant protein; residues 1-339; label: 5'-FAM; single-stranded DNA
DMC1 (Homo sapiens) [9] = biological target: T1, DMC1 (Homo sapiens); assay: EMSA, disruption by BRC4; conditions: TEA + KCl, 5-fold excess BRC4 (1519-1551), completely disrupted; DMC1: 25 mM TEA (triethanolamine) pH 7.5, 200 mM KCl, 1 mM ATP, 2 mM MgCl2, 0.1 mg/ml BSA, 2 mM DTT, or 50 mM TAE pH 7.5, 2 mM ATP, 2 mM MgCl2, 2 mM DTT; recombinant protein; residues 1-340; protein details: His6 removed by TEV; label: 5'-FAM; single-stranded DNA
DMC1 + BRCA2 Ex14-Tr [10] = assay: EMSA super-shift; conditions: TEA + KCl, ATP, Mg2+, text: failed to super-shift, legend: largely eliminated; DMC1: 25 mM TEA (triethanolamine) pH 7.5, 200 mM KCl, 1 mM ATP, 2 mM MgCl2, 0.1 mg/ml BSA, 2 mM DTT, or 50 mM TAE pH 7.5, 2 mM ATP, 2 mM MgCl2, 2 mM DTT; recombinant protein; protein details: His6 removed by TEV; label: 5'-FAM; single-stranded DNA
DMC1 (Homo sapiens) [11] = biological target: T1, DMC1 (Homo sapiens); assay: EMSA; conditions: DMC1: 25 mM TEA (triethanolamine) pH 7.5, 200 mM KCl, 1 mM ATP, 2 mM MgCl2, 0.1 mg/ml BSA, 2 mM DTT, or 50 mM TAE pH 7.5, 2 mM ATP, 2 mM MgCl2, 2 mM DTT, recombinant protein, residues 1-340, protein details: His6 removed by TEV, label: 5'-FAM, single-stranded DNA
[12] = label: none (SYBR Gold post-stain)

Row | Sequence | binding result (RAD51 L180E [1]; Ex27 + BRC4, protection abrogated, label: none (SYBR Gold post-stain)) | binding result (RAD51 [2]; Ex27-AAA + BRC4, protection abrogated, label: none (SYBR Gold post-stain)) | binding result (RAD51 [3]; stoichiometric excess BRC4 disrupts, label: none (SYBR Gold post-stain)) | binding result (RAD51 L180E [4]; [12]) | binding result (RAD51 [5]; [12]) | binding result (RAD51 L180E [1]; Ex27 + BRC4, not protected, label: 5'-FAM) | binding result (DMC1 + BRCA2 Ex14-Tr [6]) | binding result (DMC1 (Homo sapiens) [7]) | binding result (RAD51 [2]; Ex27-AAA (legend: Ex14-AAA, sites printed F3298A/P3300A/P3301A or F3308A/P3310A/P3311A) + BRC4, not protected, label: 5'-FAM) | binding result (RAD51 L180E [8]) | binding result (DMC1 (Homo sapiens) [9]) | binding result (RAD51 [3]; equimolar BRC4 disrupts, label: 5'-FAM) | binding result (DMC1 + BRCA2 Ex14-Tr [10]) | binding result (RAD51 L180E [4]; 50 mM TEA, label: 5'-FAM) | binding result (DMC1 (Homo sapiens) [11]; TAE + Ex14-AAA, largely failed to stimulate, some at high concentration) | binding result (DMC1 (Homo sapiens) [11]; TAE pH 7.5, 2 mM ATP, 2 mM Mg2+, incomplete at 3 nt per protomer) | binding result (RAD51 [5]; 50 mM TEA, label: 5'-FAM)
1 | TTTTTTTTTTTTTTTTTTTTTTTTTTTTTTTTTTTTTTTTTTTTTTTTTTTTTTTTTTTTTTTTTTTTTTTTTTTTTTTTTTTTTTTTTTTTTTTTTTTT [100-nt poly(dT)] | binds more weakly | binds more weakly | binds more weakly | binds | binds |  |  |  |  |  |  |  |  |  |  |  | 
2 | AATTCTCATTTTACTTACCGGACGCTATTAGCAGTGGGTGAGCAAAAACAGGAAGGCAAAATGCCGCAAAAAAGGGAATAAGGGCGACACGGAAATGTTG [100-nt random-sequence ssDNA] |  |  |  |  |  | binds more weakly | binds more weakly | binds more weakly | binds more weakly | binds more weakly | no binding | binds more weakly | binds more weakly | binds | binds more weakly | binds more weakly | binds
